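Human melanoma cells were exposed to a pair of drugs for 72 h in 1,536-well plates and read by automated microscopy after fixing and staining. Each value is the cleaved-PARP-positive fraction of nuclei relative to DMSO-treated wells, in %, so that 100 equals the control and higher values mean more apoptosis. Concentrations were fixed for each drug; these are the higher of two levels. No replicate spread is given; individual values may be noisy. Basal and induced levels differ widely between cell lines.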
An unselected part of the screen is shown.
An entry leaves out what has no value listed here.

Drug key:
AS-252424 (5 µM): O=C1NC(=O)/C(=C/c2ccc(-c3ccc(F)cc3O)o2)S1
FK866 (0.05 µM): O=C(/C=C/c1cccnc1)NCCCCC1CCN(C(=O)c2ccccc2)CC1
fingolimod (10 µM): CCCCCCCCc1ccc(CCC(N)(CO)CO)cc1
lestaurtinib (0.02 µM): C[C@]12O[C@H](C[C@]1(O)CO)n1c3ccccc3c3c4c(c5c6ccccc6n2c5c31)CNC4=O
pazopanib (2 µM): Cc1ccc(Nc2nccc(N(C)c3ccc4c(C)n(C)nc4c3)n2)cc1S(N)(=O)=O
tanespimycin (0.01 µM): C=CCNC1=C2C[C@@H](C)C[C@H](OC)[C@H](O)[C@@H](C)/C=C(\C)[C@H](OC(N)=O)[C@@H](OC)/C=C\C=C(/C)C(=O)NC(=CC1=O)C2=O
SNS-314 (0.004 µM): O=C(Nc1cccc(Cl)c1)Nc1ncc(CCNc2ncnc3ccsc23)s1
darinaparsin (2 µM): C[As](C)SC[C@H](NC(=O)CC[C@H](N)C(=O)O)C(=O)NCC(=O)O
GSK650394 (0.8 µM): O=C(O)c1ccc(-c2c[nH]c3ncc(-c4ccccc4)cc23)cc1C1CCCC1

{"drugs": "FK866 + GSK650394", "IPC-298": 194, "WM1745": 70.4, "COLO 800": 185, "UACC-257": 37.5, "G-361": 6530, "RPMI-7951": 239, "SK-MEL-2": 1650}
{"drugs": "fingolimod + pazopanib", "IPC-298": 277, "A375": 121, "WM1745": 5600, "COLO 800": 328, "UACC-257": 129, "G-361": 7250, "RPMI-7951": 1890, "SK-MEL-2": 7860}
{"drugs": "lestaurtinib + darinaparsin", "IPC-298": 161, "A375": 52.3, "WM1745": 89.1, "COLO 800": 211, "UACC-257": 89.7, "G-361": 177, "RPMI-7951": 44.0, "SK-MEL-2": 74.3}
{"drugs": "darinaparsin + SNS-314", "IPC-298": 39.2, "WM1745": 99.9, "COLO 800": 189, "UACC-257": 112, "G-361": 184, "RPMI-7951": 94.1, "SK-MEL-2": 332}
{"drugs": "lestaurtinib + SNS-314", "IPC-298": 129, "WM1745": 110, "COLO 800": 183, "UACC-257": 90.7, "G-361": 192, "RPMI-7951": 143, "SK-MEL-2": 185}
{"drugs": "darinaparsin + fingolimod", "IPC-298": 636, "A375": 140, "WM1745": 911, "COLO 800": 185, "UACC-257": 159, "G-361": 16900, "RPMI-7951": 4990, "SK-MEL-2": 9120}
{"drugs": "GSK650394 + lestaurtinib", "IPC-298": 359, "WM1745": 187, "COLO 800": 234, "UACC-257": 334, "G-361": 397, "RPMI-7951": 115, "SK-MEL-2": 125}
{"drugs": "fingolimod + lestaurtinib", "IPC-298": 744, "A375": 96.3, "WM1745": 3980, "COLO 800": 313, "UACC-257": 46.6, "G-361": 11200, "RPMI-7951": 3580, "SK-MEL-2": 10100}
{"drugs": "AS-252424 + lestaurtinib", "IPC-298": 117, "A375": 80.3, "COLO 800": 63.7, "UACC-257": 26.0, "G-361": 314, "RPMI-7951": 60.0, "SK-MEL-2": 122}
{"drugs": "GSK650394 + AS-252424", "IPC-298": 72.9, "A375": 38.5, "WM1745": 144, "COLO 800": 91.3, "UACC-257": 53.7, "G-361": 171, "RPMI-7951": 167, "SK-MEL-2": 187}
{"drugs": "SNS-314 + FK866", "IPC-298": 86.2, "WM1745": 82.9, "COLO 800": 106, "UACC-257": 40.8, "G-361": 7140, "RPMI-7951": 98.9, "SK-MEL-2": 825}
{"drugs": "SNS-314 + GSK650394", "IPC-298": 108, "WM1745": 105, "COLO 800": 184, "UACC-257": 104, "G-361": 313, "RPMI-7951": 186}
{"drugs": "tanespimycin + SNS-314", "IPC-298": 192, "WM1745": 124, "COLO 800": 243, "UACC-257": 40.5, "G-361": 502, "RPMI-7951": 1670, "SK-MEL-2": 215}
{"drugs": "pazopanib + SNS-314", "IPC-298": 116, "WM1745": 148, "COLO 800": 287, "UACC-257": 159, "G-361": 260, "RPMI-7951": 291, "SK-MEL-2": 138}
{"drugs": "FK866 + darinaparsin", "IPC-298": 2090, "A375": 118, "WM1745": 87.0, "COLO 800": 283, "UACC-257": 34.6, "G-361": 7750, "RPMI-7951": 84.8, "SK-MEL-2": 5130}
{"drugs": "pazopanib + GSK650394", "IPC-298": 110, "WM1745": 78.3, "COLO 800": 63.6, "UACC-257": 83.7, "G-361": 128, "RPMI-7951": 76.6, "SK-MEL-2": 71.5}
{"drugs": "AS-252424 + pazopanib", "IPC-298": 218, "A375": 67.9, "COLO 800": 63.6, "UACC-257": 59.6, "G-361": 170, "RPMI-7951": 126, "SK-MEL-2": 93.3}
{"drugs": "AS-252424 + tanespimycin", "IPC-298": 51.6, "A375": 41.7, "COLO 800": 29.8, "UACC-257": 28.8, "G-361": 451, "RPMI-7951": 377, "SK-MEL-2": 78.1}
{"drugs": "FK866 + tanespimycin", "IPC-298": 571, "A375": 249, "WM1745": 140, "COLO 800": 251, "UACC-257": 57.4, "G-361": 3790, "RPMI-7951": 463, "SK-MEL-2": 2340}
{"drugs": "fingolimod + AS-252424", "IPC-298": 1020, "A375": 91.8, "COLO 800": 429, "UACC-257": 83.8, "G-361": 14300, "RPMI-7951": 1840, "SK-MEL-2": 48200}
{"drugs": "AS-252424 + darinaparsin", "IPC-298": 91.7, "A375": 117, "WM1745": 113, "COLO 800": 66.3, "UACC-257": 54.2, "G-361": 127, "RPMI-7951": 66.5, "SK-MEL-2": 89.3}
{"drugs": "darinaparsin + pazopanib", "IPC-298": 143, "A375": 49.1, "WM1745": 133, "COLO 800": 75.9, "UACC-257": 101, "G-361": 167, "RPMI-7951": 116, "SK-MEL-2": 114}
{"drugs": "fingolimod + FK866", "IPC-298": 7390, "A375": 269, "WM1745": 5570, "COLO 800": 242, "UACC-257": 160, "G-361": 5540, "RPMI-7951": 5430, "SK-MEL-2": 8010}
{"drugs": "SNS-314 + AS-252424", "IPC-298": 62.4, "A375": 25.8, "WM1745": 163, "COLO 800": 290, "UACC-257": 47.4, "G-361": 313, "RPMI-7951": 166, "SK-MEL-2": 174}
{"drugs": "GSK650394 + tanespimycin", "IPC-298": 278, "WM1745": 153, "COLO 800": 180, "UACC-257": 41.2, "G-361": 547, "RPMI-7951": 508, "SK-MEL-2": 400}
{"drugs": "SNS-314 + fingolimod", "IPC-298": 187, "WM1745": 3590, "COLO 800": 354, "UACC-257": 123, "G-361": 18100, "RPMI-7951": 1510, "SK-MEL-2": 7880}
{"drugs": "darinaparsin + tanespimycin", "IPC-298": 170, "A375": 56.1, "WM1745": 156, "COLO 800": 86.3, "UACC-257": 95.8, "G-361": 381, "RPMI-7951": 587, "SK-MEL-2": 148}
{"drugs": "tanespimycin + fingolimod", "IPC-298": 343, "A375": 114, "WM1745": 1220, "COLO 800": 236, "UACC-257": 66.7, "G-361": 16200, "RPMI-7951": 1590, "SK-MEL-2": 4190}
{"drugs": "lestaurtinib + tanespimycin", "IPC-298": 109, "A375": 55.2, "WM1745": 151, "COLO 800": 25.0, "UACC-257": 84.4, "G-361": 366, "RPMI-7951": 123, "SK-MEL-2": 131}
{"drugs": "pazopanib + tanespimycin", "IPC-298": 64.1, "A375": 40.9, "WM1745": 445, "COLO 800": 70.6, "UACC-257": 86.8, "G-361": 129, "RPMI-7951": 540, "SK-MEL-2": 106}
{"drugs": "AS-252424 + FK866", "IPC-298": 333, "A375": 68.6, "COLO 800": 189, "UACC-257": 23.7, "G-361": 5530, "RPMI-7951": 175, "SK-MEL-2": 2650}
{"drugs": "lestaurtinib + FK866", "IPC-298": 850, "A375": 94.6, "WM1745": 120, "COLO 800": 157, "UACC-257": 65.3, "G-361": 5540, "RPMI-7951": 110, "SK-MEL-2": 3430}
{"drugs": "lestaurtinib + pazopanib", "IPC-298": 48.9, "A375": 33.6, "WM1745": 122, "COLO 800": 65.8, "UACC-257": 41.6, "G-361": 243, "RPMI-7951": 159, "SK-MEL-2": 126}
{"drugs": "pazopanib + FK866", "IPC-298": 983, "A375": 86.2, "WM1745": 78.3, "COLO 800": 292, "UACC-257": 83.1, "G-361": 7740, "RPMI-7951": 129, "SK-MEL-2": 8000}
{"drugs": "fingolimod + GSK650394", "IPC-298": 235, "WM1745": 2070, "COLO 800": 59.4, "UACC-257": 190, "G-361": 2930, "RPMI-7951": 3530, "SK-MEL-2": 3640}
{"drugs": "GSK650394 + darinaparsin", "IPC-298": 61.8, "WM1745": 183, "COLO 800": 562, "UACC-257": 46.1, "G-361": 237, "RPMI-7951": 87.2, "SK-MEL-2": 225}

Some entries from above, unchanged:

{"drugs": "GSK650394 + AS-252424", "IPC-298": 72.9, "A375": 38.5, "WM1745": 144, "COLO 800": 91.3, "UACC-257": 53.7, "G-361": 171, "RPMI-7951": 167, "SK-MEL-2": 187}
{"drugs": "SNS-314 + GSK650394", "IPC-298": 108, "WM1745": 105, "COLO 800": 184, "UACC-257": 104, "G-361": 313, "RPMI-7951": 186}

Values as published with doi:10.1371/journal.pone.0140310, rounded.